Results deposited as PubChem BioAssay AID1159578 (Peter MacCallum Cancer Centre, 2015).
Assay: 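Knock-downs that alter how fast lymphatic endothelial cells migrate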 (primary screen). Cell system: human lymphatic endothelial cells. Knock-down reagent: siRNA pool against human genes, 40 nM. Duration: 48 h after transfection. Measurement: 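Cells stained with dye and imaged after a scratch; covered wound area and nuclei counted, duplicates averaged, migration set against mock wells and turned into a robust z-score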. Scale: migration robust z-score: higher = faster migration into the scratch; migration relative to mock: higher = more scratch area covered than mock; nuclei per well: higher = more cells in the well. Hit rule: 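Pools averaging fewer than 3300 nuclei are never called; remaining pools count as changed when migration robust z lies outside -2 to 2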. Calls: active = migration changed; inactive = no migration change, or too few cells.
Here is a random part of about 18,000 reagents tested. About 1,030 of all reagents (5.7%) count as active. 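Inactive calls also include pools with fewer than 3300 nuclei, whose migration was not assessed.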 Raw values are not corrected between plates. No sequences are given here.

| gene | migration robust z-score | migration class with cell-count check | migration relative to mock | nuclei per well, duplicate mean | Outcome |
| --- | --- | --- | --- | --- | --- |
| SRSF6 (serine and arginine rich splicing factor 6) | 0.26 | migration z between -2 and 2; enough cells | 0.95 | 5416 | inactive |
| CATSPER2 (cation channel sperm associated 2) | 0.91 | migration z between -2 and 2; enough cells | 0.98 | 6058 | inactive |
| NDRG4 (NDRG family member 4) | 1.8 | migration z between -2 and 2; enough cells | 1.35 | 5391 | inactive |
| SEC16A (SEC16 homolog A, endoplasmic reticulum export factor) | 0.96 | migration z between -2 and 2; enough cells | 0.99 | 5302 | inactive |
| CLIP3 (CAP-Gly domain containing linker protein 3) | -1.23 | migration z between -2 and 2; enough cells | 0.56 | 6762 | inactive |
| REXO5 (RNA exonuclease 5) | 0.73 | migration z between -2 and 2; enough cells | 0.94 | 5623 | inactive |
| MZT2A (mitotic spindle organizing protein 2A) | -0.05 | migration z between -2 and 2; enough cells | 0.88 | 6700 | inactive |
| KDELR2 (KDEL endoplasmic reticulum protein retention receptor 2) | -0.42 | migration z between -2 and 2; enough cells | 0.73 | 6851 | inactive |
| HAAO (3-hydroxyanthranilate 3,4-dioxygenase) | -1.77 | migration z between -2 and 2; enough cells | 0.46 | 5780 | inactive |
| CHDH (choline dehydrogenase) | -1.29 | migration z between -2 and 2; enough cells | 0.55 | 3586 | inactive |
| SFT2D2 (SFT2 domain containing 2) | -0.06 | migration z between -2 and 2; enough cells | 0.87 | 4488 | inactive |
| BAHD1 (bromo adjacent homology domain containing 1) | 0.54 | migration z between -2 and 2; enough cells | 0.91 | 4802 | inactive |
| TMEM192 (transmembrane protein 192) | -0.87 | migration z between -2 and 2; enough cells | 0.66 | 5686 | inactive |
| NR1H2 (nuclear receptor subfamily 1 group H member 2) | 0.26 | migration z between -2 and 2; enough cells | 0.86 | 5279 | inactive |
| TSPY1 (testis specific protein Y-linked 1) | 0 | migration z between -2 and 2; enough cells | 0.88 | 5906 | inactive |
| ACTL10 (actin like 10) | -0.49 | migration z between -2 and 2; enough cells | 0.76 | 4978 | inactive |
| ING2 (inhibitor of growth family member 2) | -0.77 | migration z between -2 and 2; enough cells | 0.66 | 4890 | inactive |
| BRF1 (BRF1 general transcription factor IIIB subunit) | 1.42 | migration z between -2 and 2; enough cells | 1.08 | 5336 | inactive |
| C2orf69 (chromosome 2 open reading frame 69) | -3.25 | under 3300 nuclei; migration not judged | 0.04 | 2903 | inactive |
| TBATA (thymus, brain and testes associated) | 0.1 | migration z between -2 and 2; enough cells | 0.92 | 4880 | inactive |
| KIF13B (kinesin family member 13B) | 0.24 | migration z between -2 and 2; enough cells | 0.94 | 5862 | inactive |
| GSTT1 (glutathione S-transferase theta 1) | 0.86 | migration z between -2 and 2; enough cells | 0.97 | 7544 | inactive |
| PTPRZ1 (protein tyrosine phosphatase receptor type Z1) | 0.62 | migration z between -2 and 2; enough cells | 0.92 | 5366 | inactive |
